Here are results for two molecules from paper doi:10.1101/2022.08.19.504472.

These are yes or no findings as the source states them, for the method shown. Some entries that bind do so weakly or less than the wild type.

The experiment addresses T1, UBR box of Arabidopsis thaliana PRT6 (AtPRT6-UBR) (Arabidopsis thaliana) (UniProt F4KCC2).
T1 sequence: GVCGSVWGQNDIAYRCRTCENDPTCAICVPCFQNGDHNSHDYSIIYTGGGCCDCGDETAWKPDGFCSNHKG
Nature of the experiment: crystal structure.

On to RLGSGG [RLGSGG N-degron sequence (RL-peptide of the AtPRT6 crystals)], for which the binding result is listed as “binds”. In the case of RRGSGG [RRGSGG N-degron sequence (RR-peptide)] it was “binds”.
